# Assay results reported in patent US20200331882A1, “COMPOUND FOR SIMULTANEOUSLY INHIBITING LSD1 AND HDAC TARGETS AND APPLICATION THEREOF” (PEKING UNIVERSITY SHENZHEN GRADUATE SCHOOL, priority 2018, published 2020).
# Assays:
# Assay in all cases: CellTiter-Glo cell proliferation
# Format in all cases: cell-based
# Settings in all cases: CTG, 72 hours, read-out: Absolute IC50
# [1] = system: A549
# Description: (§1) The effect of the present invention compound ZZY-003 on the cell proliferation of 50 cell lines was evaluated by CellTiter-Glo (CTG) method, and the 50% inhibitory concentration was calculated by detecting the cell viability after treatment with different drug concentrations. The cells were resuscitated and cultured in their respective culture media. The cells in logarithmic growth phase were harvested and the cells were counted by cell counter. The cell viability was detected by Trypan blue exclusion method to ensure that the cell line viability was more than 96%. The cell concentration was adjusted by diluting with the culture medium, and 90 μL cell suspension was added to the 96-well cell plate (including the cell control T0 on the day of drug treatment) to make the cell density reach the specified concentration. The cells in the 96-well plate were cultured overnight at 37° C., 5% CO2 and 95% humidity. 10 μL culture medium was added to the control cell culture plate. CellTiter-Glo reagent and cell culture plate were placed at room temperature to balance for 30 minutes. The same volume of CellTiter-Glo reagent was added to each well. Vibrate on the orbital shaker for 2 min to make the cells fully lytic. The cell culture plate was placed at room temperature to balance for 10 minutes. Chemiluminescence values were read with EnVision. The storage solution was formed by dissolving the tested compound with the corresponding solvent and diluted in gradient to obtain 10 times working concentration solution, and 10 times solution of positive drug was also prepared. 10 μL drug solution was added to each well in the 96-well plate in which the cells were inoculated, and each cell concentration was provided with three duplicate wells. […] Chemiluminescence values were read with EnVision. […] Cell survival rate (%)=(Lum drug to be detected−Lum culture medium control)/(Lum cell control−Lum culture medium control)×100%; Lum cell control−Lum culture medium control was set to 100%, LumMedium control value was set to 0%;
# [2] = system: MCF7
# Description: as §1
# [3] = system: MDA-MB-231
# Description: as §1
compound,measurement,setting,value
"N.N.[Cl][Pt][Cl] [Cisplatin, reference compound]",IC50,[1],7.89 µM
same,IC50,[2],22 µM
same,IC50,[3],20.6 µM
